Source: PMC3762332
The exact form of at least one protein or probe is not confirmed. For some assays here: Where a protein sequence is shown, tags need not be part of it.

Sequences of proteins named here, by UniProt entry; tags and fusion partners are left off. A change or cut given only in a name is not applied to a line headed by its entry.
UniProt Q15583: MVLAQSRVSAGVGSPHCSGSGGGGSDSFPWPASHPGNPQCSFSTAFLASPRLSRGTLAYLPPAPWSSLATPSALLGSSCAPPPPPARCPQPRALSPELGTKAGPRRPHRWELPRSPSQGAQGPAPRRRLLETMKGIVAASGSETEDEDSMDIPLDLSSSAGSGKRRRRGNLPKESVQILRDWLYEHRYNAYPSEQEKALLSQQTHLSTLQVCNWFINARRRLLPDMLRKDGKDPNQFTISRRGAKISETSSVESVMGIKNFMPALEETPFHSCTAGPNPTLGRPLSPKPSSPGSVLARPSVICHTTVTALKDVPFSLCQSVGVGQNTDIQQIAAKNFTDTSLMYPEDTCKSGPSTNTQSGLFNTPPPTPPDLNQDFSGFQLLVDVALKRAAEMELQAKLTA
UniProt Q8NC26: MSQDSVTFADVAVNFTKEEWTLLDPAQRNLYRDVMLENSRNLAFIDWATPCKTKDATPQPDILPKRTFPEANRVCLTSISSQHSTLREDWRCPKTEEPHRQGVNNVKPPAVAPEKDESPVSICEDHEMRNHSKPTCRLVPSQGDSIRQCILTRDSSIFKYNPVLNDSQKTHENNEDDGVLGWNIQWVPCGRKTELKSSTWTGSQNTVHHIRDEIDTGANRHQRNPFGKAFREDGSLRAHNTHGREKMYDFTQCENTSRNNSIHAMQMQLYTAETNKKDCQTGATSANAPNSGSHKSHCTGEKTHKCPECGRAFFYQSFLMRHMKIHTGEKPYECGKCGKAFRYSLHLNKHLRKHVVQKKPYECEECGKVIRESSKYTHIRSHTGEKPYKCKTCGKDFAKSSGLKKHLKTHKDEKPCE
UniProt P43694: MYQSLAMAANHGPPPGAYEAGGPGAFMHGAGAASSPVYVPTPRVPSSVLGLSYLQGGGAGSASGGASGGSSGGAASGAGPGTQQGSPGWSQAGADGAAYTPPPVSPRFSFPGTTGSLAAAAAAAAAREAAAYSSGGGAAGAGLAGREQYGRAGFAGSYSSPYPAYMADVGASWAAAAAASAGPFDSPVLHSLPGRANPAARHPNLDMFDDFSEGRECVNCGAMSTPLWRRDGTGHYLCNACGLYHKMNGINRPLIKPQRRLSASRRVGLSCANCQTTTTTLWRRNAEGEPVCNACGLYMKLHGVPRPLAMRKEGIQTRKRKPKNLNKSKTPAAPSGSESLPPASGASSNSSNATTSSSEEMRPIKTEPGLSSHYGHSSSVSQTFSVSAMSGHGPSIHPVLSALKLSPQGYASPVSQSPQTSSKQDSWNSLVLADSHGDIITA
UniProt Q8IW36: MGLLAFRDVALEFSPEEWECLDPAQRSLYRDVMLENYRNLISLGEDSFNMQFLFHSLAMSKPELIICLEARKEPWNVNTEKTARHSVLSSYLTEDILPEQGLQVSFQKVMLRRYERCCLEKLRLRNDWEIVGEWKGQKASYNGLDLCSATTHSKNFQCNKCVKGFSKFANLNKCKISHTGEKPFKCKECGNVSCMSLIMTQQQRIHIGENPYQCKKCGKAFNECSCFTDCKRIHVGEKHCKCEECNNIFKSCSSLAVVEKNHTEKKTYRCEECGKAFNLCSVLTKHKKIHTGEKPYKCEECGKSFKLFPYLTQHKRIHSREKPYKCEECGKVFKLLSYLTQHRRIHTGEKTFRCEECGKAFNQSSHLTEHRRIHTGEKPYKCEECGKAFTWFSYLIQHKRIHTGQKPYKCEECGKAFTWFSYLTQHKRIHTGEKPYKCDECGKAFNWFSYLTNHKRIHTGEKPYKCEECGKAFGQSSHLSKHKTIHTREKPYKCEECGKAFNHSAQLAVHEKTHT
UniProt Q8TBJ5: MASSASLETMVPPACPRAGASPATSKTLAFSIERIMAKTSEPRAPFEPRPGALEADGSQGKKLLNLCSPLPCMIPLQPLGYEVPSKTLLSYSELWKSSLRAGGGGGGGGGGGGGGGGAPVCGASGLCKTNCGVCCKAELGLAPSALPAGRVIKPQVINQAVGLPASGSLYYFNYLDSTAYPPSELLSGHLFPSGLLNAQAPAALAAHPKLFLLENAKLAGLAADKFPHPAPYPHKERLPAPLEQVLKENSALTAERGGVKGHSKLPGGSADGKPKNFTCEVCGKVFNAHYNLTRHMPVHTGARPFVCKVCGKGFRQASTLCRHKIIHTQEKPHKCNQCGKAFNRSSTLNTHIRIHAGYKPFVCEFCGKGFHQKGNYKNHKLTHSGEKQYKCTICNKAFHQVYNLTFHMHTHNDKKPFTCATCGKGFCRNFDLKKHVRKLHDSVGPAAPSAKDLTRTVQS
UniProt Q9BWM5: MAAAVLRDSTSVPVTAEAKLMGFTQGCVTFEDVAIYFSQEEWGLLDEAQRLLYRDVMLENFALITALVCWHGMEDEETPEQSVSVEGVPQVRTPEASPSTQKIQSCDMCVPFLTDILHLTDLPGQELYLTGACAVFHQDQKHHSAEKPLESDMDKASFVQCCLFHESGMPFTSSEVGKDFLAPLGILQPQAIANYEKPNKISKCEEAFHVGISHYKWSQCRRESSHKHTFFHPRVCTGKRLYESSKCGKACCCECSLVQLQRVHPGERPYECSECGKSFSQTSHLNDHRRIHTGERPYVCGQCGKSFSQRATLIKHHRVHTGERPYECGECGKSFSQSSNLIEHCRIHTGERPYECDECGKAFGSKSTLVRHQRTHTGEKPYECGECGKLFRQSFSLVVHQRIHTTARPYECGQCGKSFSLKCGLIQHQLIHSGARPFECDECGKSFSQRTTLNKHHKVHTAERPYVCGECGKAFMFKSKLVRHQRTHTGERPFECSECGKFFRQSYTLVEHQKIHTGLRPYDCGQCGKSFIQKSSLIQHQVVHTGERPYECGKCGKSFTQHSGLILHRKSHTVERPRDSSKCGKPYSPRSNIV
UniProt O43474: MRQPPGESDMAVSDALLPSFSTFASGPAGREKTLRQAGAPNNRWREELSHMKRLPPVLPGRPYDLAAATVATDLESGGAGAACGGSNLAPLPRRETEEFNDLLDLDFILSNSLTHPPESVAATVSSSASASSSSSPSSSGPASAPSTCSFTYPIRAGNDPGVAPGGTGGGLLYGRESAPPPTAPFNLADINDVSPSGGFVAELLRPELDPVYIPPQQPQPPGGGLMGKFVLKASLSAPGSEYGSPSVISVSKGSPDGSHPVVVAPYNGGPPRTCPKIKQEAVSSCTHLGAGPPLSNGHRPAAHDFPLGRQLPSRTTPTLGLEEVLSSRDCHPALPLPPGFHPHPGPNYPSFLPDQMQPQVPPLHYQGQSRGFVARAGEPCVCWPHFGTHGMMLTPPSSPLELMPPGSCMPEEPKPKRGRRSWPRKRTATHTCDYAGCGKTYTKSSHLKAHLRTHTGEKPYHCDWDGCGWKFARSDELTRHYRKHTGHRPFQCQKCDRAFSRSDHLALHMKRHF
UniProt Q9Y2L8: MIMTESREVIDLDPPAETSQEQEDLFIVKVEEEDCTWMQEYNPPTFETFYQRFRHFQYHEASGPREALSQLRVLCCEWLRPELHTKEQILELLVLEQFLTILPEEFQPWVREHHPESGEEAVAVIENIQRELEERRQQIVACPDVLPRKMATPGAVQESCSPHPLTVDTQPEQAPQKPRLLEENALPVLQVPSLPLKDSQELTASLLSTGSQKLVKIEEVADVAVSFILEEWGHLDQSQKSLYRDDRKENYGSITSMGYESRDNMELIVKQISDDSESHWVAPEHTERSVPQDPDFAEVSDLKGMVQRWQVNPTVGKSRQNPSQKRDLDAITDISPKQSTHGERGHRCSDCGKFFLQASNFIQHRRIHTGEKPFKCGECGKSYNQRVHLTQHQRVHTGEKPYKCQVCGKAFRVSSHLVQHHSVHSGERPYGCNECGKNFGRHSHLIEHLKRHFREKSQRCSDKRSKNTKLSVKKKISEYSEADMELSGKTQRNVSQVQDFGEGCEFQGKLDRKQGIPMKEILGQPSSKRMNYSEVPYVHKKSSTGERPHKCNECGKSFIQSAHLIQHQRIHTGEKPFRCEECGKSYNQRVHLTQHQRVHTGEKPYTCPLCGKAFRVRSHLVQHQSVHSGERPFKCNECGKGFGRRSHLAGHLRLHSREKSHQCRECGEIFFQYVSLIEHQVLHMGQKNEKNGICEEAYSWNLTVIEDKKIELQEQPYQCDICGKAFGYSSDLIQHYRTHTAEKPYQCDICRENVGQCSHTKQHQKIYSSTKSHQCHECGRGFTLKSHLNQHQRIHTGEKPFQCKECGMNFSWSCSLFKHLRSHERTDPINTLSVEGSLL
UniProt O00716: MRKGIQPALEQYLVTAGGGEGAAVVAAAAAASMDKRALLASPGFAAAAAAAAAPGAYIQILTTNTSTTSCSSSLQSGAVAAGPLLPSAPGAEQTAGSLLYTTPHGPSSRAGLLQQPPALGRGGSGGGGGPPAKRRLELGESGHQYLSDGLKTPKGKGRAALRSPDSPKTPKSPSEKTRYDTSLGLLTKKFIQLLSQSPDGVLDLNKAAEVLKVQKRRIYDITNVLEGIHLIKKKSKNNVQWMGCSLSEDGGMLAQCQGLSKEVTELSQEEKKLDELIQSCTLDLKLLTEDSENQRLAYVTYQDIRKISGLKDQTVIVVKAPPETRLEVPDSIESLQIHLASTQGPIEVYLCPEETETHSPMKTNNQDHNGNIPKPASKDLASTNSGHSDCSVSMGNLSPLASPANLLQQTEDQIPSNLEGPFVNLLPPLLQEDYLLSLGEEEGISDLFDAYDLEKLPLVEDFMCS
UniProt P20719: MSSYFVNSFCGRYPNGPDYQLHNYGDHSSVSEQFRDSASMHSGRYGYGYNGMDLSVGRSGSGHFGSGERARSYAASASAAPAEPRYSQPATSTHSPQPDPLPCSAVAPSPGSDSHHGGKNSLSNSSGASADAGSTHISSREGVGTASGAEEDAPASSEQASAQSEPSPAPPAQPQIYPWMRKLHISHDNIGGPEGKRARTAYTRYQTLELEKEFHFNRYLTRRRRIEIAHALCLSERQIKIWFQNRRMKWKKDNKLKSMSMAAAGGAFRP
UniProt P05549: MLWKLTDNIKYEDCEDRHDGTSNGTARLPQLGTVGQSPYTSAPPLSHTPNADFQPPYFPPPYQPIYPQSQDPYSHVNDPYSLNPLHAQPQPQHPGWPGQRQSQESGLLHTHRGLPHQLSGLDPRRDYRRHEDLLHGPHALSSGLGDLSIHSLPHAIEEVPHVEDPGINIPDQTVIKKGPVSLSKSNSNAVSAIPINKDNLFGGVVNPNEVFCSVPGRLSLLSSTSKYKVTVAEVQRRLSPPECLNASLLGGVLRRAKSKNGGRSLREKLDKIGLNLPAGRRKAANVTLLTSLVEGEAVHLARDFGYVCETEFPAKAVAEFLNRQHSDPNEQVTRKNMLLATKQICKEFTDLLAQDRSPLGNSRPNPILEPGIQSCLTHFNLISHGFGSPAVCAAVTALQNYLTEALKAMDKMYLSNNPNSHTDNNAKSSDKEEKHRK
UniProt P08651, whole entry: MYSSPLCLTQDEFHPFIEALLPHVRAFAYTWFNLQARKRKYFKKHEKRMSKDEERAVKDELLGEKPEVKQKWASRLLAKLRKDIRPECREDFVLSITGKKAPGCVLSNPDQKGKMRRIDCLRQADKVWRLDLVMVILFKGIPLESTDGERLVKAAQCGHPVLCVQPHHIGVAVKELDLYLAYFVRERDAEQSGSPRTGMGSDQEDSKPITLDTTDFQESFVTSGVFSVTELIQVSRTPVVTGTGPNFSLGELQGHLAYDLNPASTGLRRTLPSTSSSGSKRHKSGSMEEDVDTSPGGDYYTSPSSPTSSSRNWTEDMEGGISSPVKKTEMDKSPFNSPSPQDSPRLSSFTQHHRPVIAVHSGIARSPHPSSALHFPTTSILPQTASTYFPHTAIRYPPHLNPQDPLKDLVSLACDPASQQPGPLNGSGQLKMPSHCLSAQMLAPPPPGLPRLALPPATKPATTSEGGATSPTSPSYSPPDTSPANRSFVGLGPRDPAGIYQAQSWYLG

Legend:
Assay in all cases: protein microarray
Conditions in all cases: 10-fold cold unmethylated competitor; 5mC at CpG (SssI, both strands); recombinant protein; protein details: GST (N-terminal); label: Cy5
CALR (Homo sapiens) = target: T1, CALR (Homo sapiens) (UniProt P27797)
T1 sequence (looked up, limits assumed): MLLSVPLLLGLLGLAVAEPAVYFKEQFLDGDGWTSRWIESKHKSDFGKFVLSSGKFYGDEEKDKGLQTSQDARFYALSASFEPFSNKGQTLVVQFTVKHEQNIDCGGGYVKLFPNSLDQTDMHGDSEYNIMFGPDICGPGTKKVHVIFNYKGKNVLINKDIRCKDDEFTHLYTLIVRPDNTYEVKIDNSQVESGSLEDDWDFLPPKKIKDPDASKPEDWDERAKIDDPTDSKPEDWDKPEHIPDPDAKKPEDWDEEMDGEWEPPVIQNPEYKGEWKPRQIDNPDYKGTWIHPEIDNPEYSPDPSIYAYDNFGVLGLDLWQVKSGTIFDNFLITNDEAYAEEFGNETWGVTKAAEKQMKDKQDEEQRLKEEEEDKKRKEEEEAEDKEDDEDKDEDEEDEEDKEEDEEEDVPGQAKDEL

TGIF1 (Homo sapiens) = TGIF1 (Homo sapiens) (UniProt Q15583)
ZNF114 (Homo sapiens) = ZNF114 (Homo sapiens) (UniProt Q8NC26)
SCAPER (Homo sapiens) = target: T2, SCAPER (Homo sapiens) (UniProt Q9BY12)
T2 sequence (looked up, limits assumed): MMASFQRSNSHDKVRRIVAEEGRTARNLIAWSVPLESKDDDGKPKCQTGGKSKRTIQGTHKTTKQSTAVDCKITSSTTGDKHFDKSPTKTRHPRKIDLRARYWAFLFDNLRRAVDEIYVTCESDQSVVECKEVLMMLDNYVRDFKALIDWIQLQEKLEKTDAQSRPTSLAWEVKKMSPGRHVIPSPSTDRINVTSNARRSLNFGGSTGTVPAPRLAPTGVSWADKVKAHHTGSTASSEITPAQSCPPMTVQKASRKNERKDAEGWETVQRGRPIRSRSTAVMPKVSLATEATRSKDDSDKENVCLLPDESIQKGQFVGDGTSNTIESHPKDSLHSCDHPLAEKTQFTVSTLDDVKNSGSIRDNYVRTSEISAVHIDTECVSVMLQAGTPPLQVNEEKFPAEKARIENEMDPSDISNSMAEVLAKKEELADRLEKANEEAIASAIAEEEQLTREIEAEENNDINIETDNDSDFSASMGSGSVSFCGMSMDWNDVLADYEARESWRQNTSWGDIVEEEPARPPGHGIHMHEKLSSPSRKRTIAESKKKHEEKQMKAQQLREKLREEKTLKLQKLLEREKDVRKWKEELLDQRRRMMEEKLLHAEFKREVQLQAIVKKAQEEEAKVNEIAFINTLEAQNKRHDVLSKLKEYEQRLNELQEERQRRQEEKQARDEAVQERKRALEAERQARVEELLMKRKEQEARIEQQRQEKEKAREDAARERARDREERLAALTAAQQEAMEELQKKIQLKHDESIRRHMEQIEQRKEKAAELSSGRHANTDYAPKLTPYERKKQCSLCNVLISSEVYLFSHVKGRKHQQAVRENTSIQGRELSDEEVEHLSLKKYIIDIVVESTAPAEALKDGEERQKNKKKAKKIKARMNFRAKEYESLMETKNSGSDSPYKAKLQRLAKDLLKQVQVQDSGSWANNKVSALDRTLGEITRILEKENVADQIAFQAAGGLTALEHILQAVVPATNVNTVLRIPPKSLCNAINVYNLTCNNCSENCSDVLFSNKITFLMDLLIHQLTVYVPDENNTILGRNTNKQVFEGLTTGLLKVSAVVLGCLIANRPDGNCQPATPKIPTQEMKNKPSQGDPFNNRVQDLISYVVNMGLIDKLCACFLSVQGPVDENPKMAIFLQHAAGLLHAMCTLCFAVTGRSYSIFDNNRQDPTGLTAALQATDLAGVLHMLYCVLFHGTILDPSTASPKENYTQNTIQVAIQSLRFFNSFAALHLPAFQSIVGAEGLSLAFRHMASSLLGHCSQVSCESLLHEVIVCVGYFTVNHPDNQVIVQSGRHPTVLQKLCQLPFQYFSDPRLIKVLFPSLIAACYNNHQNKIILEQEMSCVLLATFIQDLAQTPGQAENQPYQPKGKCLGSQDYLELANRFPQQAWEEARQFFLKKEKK

GATA4 (Homo sapiens) = GATA4 (Homo sapiens) (UniProt P43694)
SUB1 (Homo sapiens) = SUB1 (Homo sapiens) (UniProt P53999)
ZNF695 (Homo sapiens) = ZNF695 (Homo sapiens) (UniProt Q8IW36)
FEZF2 (Homo sapiens) = FEZF2 (Homo sapiens) (UniProt Q8TBJ5)
ZNF416 (Homo sapiens) = ZNF416 (Homo sapiens) (UniProt Q9BWM5)
KLF4 (Homo sapiens) = KLF4 (Homo sapiens) (UniProt O43474)
ZKSCAN5 (Homo sapiens) = ZKSCAN5 (Homo sapiens) (UniProt Q9Y2L8)
E2F3 (Homo sapiens) = E2F3 (Homo sapiens) (UniProt O00716)
HOXA5 (Homo sapiens) = HOXA5 (Homo sapiens) (UniProt P20719)
TFAP2A (Homo sapiens) = TFAP2A (Homo sapiens) (UniProt P05549)
NFIC (Homo sapiens) = NFIC (Homo sapiens) (UniProt P08651)
ASH2L (Homo sapiens) = ASH2L (Homo sapiens) (UniProt Q9UBL3)

Measured: binding result

ACTACATTTCCCGCCCACTACATTTCCCGCCCTATAGTGAGTGCTATTA (double strand) [M197]
not listed: TFAP2A (Homo sapiens) | NFIC (Homo sapiens) | ASH2L (Homo sapiens)
binds: all other assays above

TGGATTGTCGCCAGAAATGGATTGTCGCCAGCCCTATAGTGAGTGCTATTA (double strand) [M209]
not listed: TGIF1 (Homo sapiens) | SUB1 (Homo sapiens) | KLF4 (Homo sapiens)
binds: all other assays above
